The list shows a part of the results. Shown are side measurements of this screen, not its main read-out; they come without a call. The list favours compounds with an active or inconclusive main result. The note in brackets gives the kind of curve behind each potency; many fits are weak.
Test: qHTS Assay to Find Inhibitors of Chronic Active B-Cell Receptor Signaling
Details: ABC-DLBCL IkBa-CBG/CBR reporter, luminescence ratio (green luciferase fused to IkBa over red control in TMD8 lymphoma cells), 4 h
Outline: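 TMD8 human ABC-DLBCL cells with doxycycline-inducible IκBα–green luciferase fusion and unfused red luciferase, in 0.5% FBS medium; compounds up to 46 uM, 4 h at 37C. Green/red luminescence ratio, filter-overlap corrected, fitted to concentration-response curves.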

[1] = measured here: CBR red luminescence, cell number
[2] = measured here: IkBa-CBG green luminescence

O=C(c1ccncc1)N1c2ccccc2Sc2ccccc21
AC50 [1]: 35.5 µM [falling, single point]

O=C(N=Nc1c(O)[nH]c2ccc([N+](=O)[O-])cc12)c1ccccc1[N+](=O)[O-]
AC50 [1]: 15.8 µM [falling, single point]

CNC(=O)CN1C(=O)NC(c2ccccc2)(c2ccccc2)C1=O
AC50 [1]: 6.31 µM [falling, single point]

Cc1cc(C(F)(F)F)nn1Cc1n[nH]c(=S)n1-c1ccc(F)cc1
AC50 [1]: 29.1 µM [rising, single point]

Cn1c(=O)n(C)c2cc(NC(=O)c3ccccc3[N+](=O)[O-])c(Br)cc21
AC50 [1]: 35.5 µM [rising, single point]

Cc1nn(-c2ccccc2)c(N)c1N=Nc1ccc2ccccc2c1
AC50 [1]: 16.4 µM [rising, partial curve, poor fit]

COc1ccc(N2CCN(C(=O)c3ccc(NC(=O)C4=CSCCO4)cc3)CC2)cc1
AC50 [1]: 31.6 µM [rising, single point]

COc1ccccc1/C=C1\SC(=S)N(CCC(=O)NCCc2ccc(O)cc2)C1=O
AC50 [1]: 12.6 µM [falling, partial curve]

O=C(CCc1nc2ccccc2c(=O)[nH]1)N1CCN(C/C=C/c2ccccc2)CC1
AC50 [1]: 0.184 µM [rising, full curve, poor fit]

O=C(CSc1nnc(C2CC2)n1C1CC1)c1ccccc1F
AC50 [1]: 16.4 µM [falling, partial curve]

CC1=NN(c2ccccc2)C(=O)C1
AC50 [1]: 1 µM [rising, partial curve, poor fit] | AC50 [2]: 3.16 µM [rising, full curve, poor fit]

O=C(CN1CCN(Cc2ccccc2Cl)C1=O)NCc1ccccn1
AC50 [1]: 5.62 µM [rising, single point]

Cc1ccc(NC(=O)c2cc(S(=O)(=O)N3CCCC3)cn2C)cc1
AC50 [1]: 7.08 µM [falling, full curve] | AC50 [2]: 11.2 µM [rising, partial curve, poor fit]

Cn1ccc2c(OCC(=O)NCc3ccccc3Cl)cccc2c1=O
AC50 [1]: 35.5 µM [falling, single point]

Cc1ccc(/C=N/NC(=O)Cn2nc(C)c(Br)c2C)o1
AC50 [1]: 16.4 µM [falling, single point]

CC(=O)N(CCc1ccccc1C)Cc1cc2ccc(C)cc2[nH]c1=O
AC50 [1]: 5.62 µM [rising, single point]

COc1cc2c(cc1OC)C(c1cccc(Br)c1)NC(=O)C2 (centres undefined)
AC50 [1]: 14.1 µM [rising, single point]

O=C(O)c1cccc(NC(=O)c2ccccc2NC(=O)c2ccco2)c1
AC50 [1]: 14.1 µM [falling, partial curve, poor fit]

COc1ccc(CNCC(O)COc2cccc3c2OC(C)(C)C3)cc1 (centres undefined)
AC50 [1]: 3.16 µM [falling, partial curve, poor fit]

Cc1cc(C)nc(NCc2ccc(Cl)cc2)n1
AC50 [1]: 7.94 µM [rising, partial curve, poor fit]

CN(C)C(=O)c1ccc(NC(=O)c2ccccc2SCC(=O)N2CCCC2)cc1
AC50 [1]: 0.00461 µM [rising, full curve]

COCCCNC(=S)Nc1ccccc1C
AC50 [1]: 0.82 µM [rising, full curve, poor fit]

O=C(O)c1ccc2nc(-c3cc4cc(F)ccc4oc3=O)[nH]c2c1
AC50 [2]: 31.6 µM [rising, partial curve, poor fit]

CCOCc1cnc(C)nc1NCC(=O)c1c(C)n(C)c2ccc(OC)cc12
AC50 [1]: 35.5 µM [rising, single point] | AC50 [2]: 35.5 µM [falling, single point]

Cc1ccc([N+](=O)[O-])cc1S(=O)(=O)N1CCCC1
AC50 [1]: 0.92 µM [rising, full curve, poor fit] | AC50 [2]: 2.59 µM [falling, partial curve, poor fit]

CC(C)Cc1cc(C(=O)O)n[nH]1
AC50 [1]: 0.517 µM [rising, partial curve, poor fit]

Cc1cc(Cl)c(S(=O)(=O)Nc2ccc3c(c2)OCCO3)cc1OCC(=O)NC1CCCCC1
AC50 [1]: 2.06 µM [falling, single point]

O=C(N/C=C/n1cnc2cc(C(F)(F)F)ccc21)c1ccccc1F
AC50 [1]: 35.5 µM [rising, single point]

CCC(CO)Oc1cc(NCc2ccccc2O)c2ncn(C(C)C)c2c1 (centres undefined)
AC50 [1]: 32.6 µM [falling, single point]

COc1cc(NC(=O)c2ccnc(N)c2)cc(C(=O)Nc2cccc(C(F)(F)F)c2)c1
AC50 [1]: 0.355 µM [falling, full curve, poor fit]

CN(C)S(=O)(=O)Oc1ccccc1C(=O)Nc1cccc(C(F)(F)F)c1
AC50 [1]: 12.6 µM [rising, single point]

Cc1cc2nc(Sc3c([N+](=O)[O-])nc(C)n3Cc3ccccc3)[nH]c2cc1C
AC50 [1]: 2.91 µM [falling, partial curve]

COc1ccccc1/C=N/NC(=O)c1ccccc1Cl
AC50 [1]: 11.2 µM [falling, single point]

Cc1ccc(/C=N/Nc2nc3ccccc3[nH]2)s1
AC50 [1]: 11.6 µM [falling, partial curve]

O=C(N/N=C/c1cccc(F)c1)c1c(O)c2c([nH]c1=O)CCCC2
AC50 [1]: 0.0651 µM [falling, full curve]

O=C(NC(=S)NCc1ccncc1)c1ccccc1
AC50 [1]: 17.8 µM [falling, single point]

COC(=O)c1cc2oc3ccccc3c2n1CC(=O)N1CCCc2ccccc21
AC50 [1]: 0.92 µM [falling, full curve, poor fit]

COc1cccc(C(N)CC(=O)O)c1 (centres undefined)
AC50 [1]: 29.1 µM [rising, single point]

O=C(NCc1ccccc1)c1ccc2nc(-c3ccco3)c(-c3ccco3)nc2c1
AC50 [1]: 9.2 µM [falling, partial curve] | AC50 [2]: 3.66 µM [rising, partial curve, poor fit]

CC1(c2ccc([N+](=O)[O-])cc2)Nc2ccccc2S1 (centres undefined)
AC50 [1]: 0.1 µM [rising, full curve, poor fit]

N=c1c(C(=O)NCc2ccc(F)cc2)cc2c(=O)n3ccccc3nc2n1Cc1cccnc1
AC50 [1]: 29.1 µM [rising, single point]

COc1cccc(N(C(=O)c2ccco2)c2nc(-c3sc(NC(=O)c4ccco4)nc3C)cs2)c1
AC50 [1]: 7.94 µM [falling, partial curve]

COc1ccc(C(=O)Nc2ccc(N3CCCC3)cc2)cc1Br
AC50 [1]: 0.562 µM [falling, full curve, poor fit]

CCOc1ccc(CCNC(=O)c2ccc3nc(N4CCOCC4)sc3c2)cc1OCC
AC50 [1]: 11.2 µM [rising, partial curve]

Cc1ccc2nc(C)c(C(=O)N/N=C/c3cccs3)n2c1
AC50 [1]: 11.6 µM [rising, partial curve, poor fit]

CCN(CC)S(=O)(=O)c1ccc(OC)c(NS(=O)(=O)c2ccc(F)cc2)c1
AC50 [1]: 3.98 µM [rising, single point]

Cc1cc(NC(=O)NC(=O)c2ccccc2)no1
AC50 [1]: 5.62 µM [falling, partial curve, poor fit]

Cc1cc(C)cc(N(C(=O)CNS(=O)(=O)c2ccccc2)C(C(=O)NCc2ccccc2)c2ccc(C)o2)c1 (centres undefined)
AC50 [1]: 29.1 µM [falling, single point]

O=C(NNC(=O)c1cncc(Br)c1)c1ccncc1
AC50 [1]: 29.1 µM [falling, single point]

COc1cccc(C(C[N+](=O)[O-])c2c(C)[nH]n(-c3ccccc3)c2=O)c1 (centres undefined)
AC50 [1]: 20 µM [rising, single point]

CCCC1CC(C)(C(=O)CSc2n[nH]c(-c3ccccc3)n2)OC1=O (centres undefined)
AC50 [1]: 2.06 µM [rising, partial curve, poor fit]

CCOC(=O)/C(C#N)=C1/SC(CCO)C(=O)N1c1ccccc1 (centres undefined)
AC50 [1]: 14.1 µM [falling, single point]

Cc1c(CCC(=O)NCCC(=O)O)c(=O)oc2c(C)c3oc4c(c3cc12)CCCC4
AC50 [1]: 3.98 µM [rising, partial curve, poor fit] | AC50 [2]: 3.55 µM [falling, full curve]

NC(=S)n1[nH]c(-c2ccc([N+](=O)[O-])cc2)c(N=Nc2ccc(Cl)cc2)c1=O
AC50 [2]: 8.91 µM [falling, partial curve]

C=CCn1c(SCc2ccc(C(=O)Nc3ccccc3)cc2)nnc1-c1ccccc1
AC50 [1]: 4.47 µM [falling, partial curve, poor fit]

CC(C)(C)OC(=O)N[C@H](/C=C/c1ccccc1)C(=O)OC(C)(C)C
AC50 [1]: 5.8 µM [rising, partial curve]

O=C(/C=C/Nc1ccc(F)cc1)c1ccco1
AC50 [1]: 29.1 µM [falling, single point]

Cc1ccc(-c2noc(CSc3nnc(-c4ccccc4)n3C)n2)cc1
AC50 [1]: 2.59 µM [rising, partial curve, poor fit]

CC(C)Cc1cc(C(=O)Nc2ccc(Br)cc2)no1
AC50 [1]: 3.55 µM [falling, partial curve, poor fit]

Nn1c(C2CCCCC2)nc2ccccc2c1=O
AC50 [1]: 12.6 µM [rising, single point]

Cc1c(NC(=O)c2ccccc2N)cccc1C(=O)O
AC50 [1]: 22.4 µM [falling, single point]

CCOC(=O)C1CCCN(C(=O)c2sc3nc(C)nc(N(CC)CC)c3c2C)C1 (centres undefined)
AC50 [1]: 16.4 µM [falling, single point]

O=C(NC1CCCCC1)c1cnn2c(C(F)(F)F)cc(-c3ccco3)nc12
AC50 [1]: 4.47 µM [rising, full curve, poor fit]

From PubChem BioAssay AID493014 (National Center for Advancing Translational Sciences (NCATS), 2011)
